Earlier results, collected in US20080194529A1 (AUSPEX PHARMACEUTICALS, INC., priority 2007, published 2008).
Some of these results come from one statement about several compounds together.

Experiments:
[1] = in vivo; cited from earlier work
[2] = cited from earlier work

Compound	half life [1]	side effects of chromatopsia, such as sensitivity to light and blurred vision, in patients taking the drug [2]
CCCc1nn(C)c2c(=O)[nH]c(-c3cc(S(=O)(=O)N4CCN(C)CC4)ccc3OCC)nc12 [sildenafil]	4 to 5 h	
CCCc1nc(C)c2c(=O)[nH]c(-c3cc(S(=O)(=O)N4CCN(CC)CC4)ccc3OCC)nn12 [vardenafil]	4 to 5 h	2-3%
